The list shows only some results of the screen, not a fair sample: it gathers tests that were run many times, whatever their T/C, doses with no T/C, and many T/C values between a quarter and a half above the control. Further doses and runs are listed elsewhere. T/C is the treated group as % of the vehicle group. Some doses have a count of surviving animals in place of a T/C: the source files T/C as zero there, which appears to mark a toxic dose or a test without result, not a measured value. Some survivor counts are full or nearly so, which does not show that the dose was tolerated: survival well below the control is almost never listed, so the zero probably covers shortened survival too. Counts of survivors are from the toxicity check (mostly the fifth day) where no day follows; animals may have died later. Schedules are NCI's codes, read here as Q, the interval in days (D) or hours (H), X, the number of doses. Some schedules carry Z or #; the key to these is not given. Some molecules as drawn cover several salts, stereoisomers or complexes of the source; a dose is that of the sample tested. Some entries hold several experiments; the values are given in rising order. Where survival is the endpoint, the PubChem record calls one and a half times the control and up active, and a quarter to a half above the control has no call in these data; cut-offs in other NCI protocols can differ. Some T/C values carry the count of animals alive at the toxicity check (mostly the fifth day); without a count, all were alive then.
Tested on: L1210 leukemia ip in BDF1 mice, survival T/C
Assay: NCI In Vivo Anticancer Drug Screen. Data for tumor model L1210 Leukemia (intraperitoneal) in B6D2F1 (BDF1) mice
Settings: T/C endpoint: mean survival time, higher T/C = longer survival
[1] = dose: 50.0 mg/kg/injection, schedule: Q01DX009 (ip), vehicle: saline with Tween-80

## C[n+]1ccc(Nc2ccc(NC(=O)c3ccc(Nc4cc[n+](C)c5ccc(N)cc45)cc3N)cc2)cc1
dose: 0.5 mg/kg/injection, schedule: Q03HX024 (ip), vehicle: water
  T/C: 139 % of control
dose: 1.0 mg/kg/injection, schedule: Q01DX009 (ip), vehicle: water, evaluated on day 30
  T/C: 131 and 133 % of control
dose: 1.0 mg/kg/injection, schedule: Q01DX009 (ip), vehicle: water, evaluated on day 60
  T/C: 129 % of control
dose: 1.0 mg/kg/injection, schedule: Q03HX008 (ip), vehicle: water
  T/C: 127 % of control
dose: 2.0 mg/kg/injection, schedule: Q01DX009 (sc), vehicle: water
  T/C: 133 % of control [7 of 8 alive]
dose: 2.0 mg/kg/injection, schedule: Q04DX003 (ip), vehicle: water
  T/C: 125 % of control
dose: 3.13 mg/kg/injection, schedule: Q01DX009 (ip), vehicle: saline
  T/C: 129 % of control
dose: 4.0 mg/kg/injection, schedule: Q01DX005 (iv), vehicle: water
  survivor count: 2 of 8 and 3 of 10
dose: 4.0 mg/kg/injection, schedule: Q04DX003 (ip), vehicle: water, evaluated on day 30
  T/C: 133 % of control
dose: 4.0 mg/kg/injection, schedule: Q04DX003 (ip), vehicle: water, evaluated on day 60
  T/C: 138 % of control
dose: 6.25 mg/kg/injection, schedule: Q01DX001 (ip), vehicle: saline with Tween-80
  T/C: 144 % of control
dose: 6.25 mg/kg/injection, schedule: Q01DX009 (ip), vehicle: saline with Tween-80
  T/C: 257, 308, 329, 336 % of control
dose: 6.25 mg/kg/injection, schedule: Q04DX002 (ip), vehicle: saline with Tween-80
  T/C: 135 % of control
dose: 6.25 mg/kg/injection, schedule: Q04DX003 (ip), vehicle: saline with Tween-80
  T/C: 141 % of control
dose: 6.25 mg/kg/injection, schedule: Q04DX003 (ip), vehicle: saline
  T/C: 144 % of control
dose: 8.0 mg/kg/injection, schedule: Q01DX002 (ip), vehicle: water
  T/C: 127 % of control
dose: 8.0 mg/kg/injection, schedule: Q03HX016 (ip), vehicle: water
  survivor count: 4 of 10
dose: 8.0 mg/kg/injection, schedule: Q04DX003 (ip), vehicle: water
  T/C: 135 % of control
dose: 8.0 mg/kg/injection, schedule: Q04DX003 (iv), vehicle: water
  survivor count: 0 of 10
dose: 12.5 mg/kg/injection, schedule: Q01DX001 (ip), vehicle: saline with Tween-80
  T/C: 146 % of control
dose: 12.5 mg/kg/injection, schedule: Q01DX009 (ip), vehicle: saline with Tween-80
  T/C: 294, 297, 322, 336 % of control
dose: 12.5 mg/kg/injection, schedule: Q04DX002 (ip), vehicle: saline with Tween-80
  T/C: 140, 159, 165, 220 % of control
dose: 16.0 mg/kg/injection, schedule: Q01DX001 (ip), vehicle: water
  T/C: 133 % of control [8 of 10 alive]
dose: 16.0 mg/kg/injection, schedule: Q01DX009 (ip), vehicle: water
  survivor count: 0 of 10, 5 of 10, 6 of 10
dose: 16.0 mg/kg/injection, schedule: Q03HX008 (ip), vehicle: water
  survivor count: 3 of 10
dose: 16.0 mg/kg/injection, schedule: Q03HX016 (ip), vehicle: water
  survivor count: 6 of 10
dose: 16.0 mg/kg/injection, schedule: Q03HX024 (ip), vehicle: water
  survivor count: 7 of 10
dose: 25.0 mg/kg/injection, schedule: Q01DX009 (ip), vehicle: saline with Tween-80
  T/C: 114 [5 of 6 alive], 117 [2 of 3 alive], 275 [5 of 6 alive], 336 % of control
dose: 25.0 mg/kg/injection, schedule: Q01DX009 (ip), vehicle: saline
  T/C: 143 % of control
dose: 25.0 mg/kg/injection, schedule: Q04DX002 (ip), vehicle: saline with Tween-80
  T/C: 101, 226, 245, 300 % of control
dose: 32.0 mg/kg/injection, schedule: Q01DX001 (ip), vehicle: water
  survivor count: 6 of 10
dose: 32.0 mg/kg/injection, schedule: Q01DX005 (ip), vehicle: water
  survivor count: 0 of 10
dose: 32.0 mg/kg/injection, schedule: Q01DX009 (ip), vehicle: water
  survivor count: 0 of 10 and 1 of 10
dose: 32.0 mg/kg/injection, schedule: Q04DX003 (ip), vehicle: water
  survivor count: 3 of 10, 4 of 10, 5 of 10
dose: 32.0 mg/kg/injection, schedule: Q08DX002 (ip), vehicle: water
  survivor count: 3 of 10
dose: 50.0 mg/kg/injection, schedule: Q01DX001 (ip), vehicle: saline with Tween-80
  survivor count: 3 of 6
[1]
  T/C: 125 and 209 % of control
  survivor count: 3 of 3 and 6 of 6
dose: 50.0 mg/kg/injection, schedule: Q01DX009 (ip), vehicle: saline
  survivor count: 1 of 6
dose: 50.0 mg/kg/injection, schedule: Q04DX002 (ip), vehicle: saline with Tween-80
  T/C: 90, 104, 270, 322 % of control
dose: 50.0 mg/kg/injection, schedule: Q04DX003 (ip), vehicle: saline with Tween-80
  survivor count: 3 of 6
dose: 64.0 mg/kg/injection, schedule: Q01DX001 (ip), vehicle: water
  survivor count: 0 of 10
dose: 64.0 mg/kg/injection, schedule: Q01DX005 (ip), vehicle: water
  survivor count: 0 of 10
dose: 64.0 mg/kg/injection, schedule: Q01DX009 (ip), vehicle: water
  survivor count: 0 of 10
dose: 64.0 mg/kg/injection, schedule: Q04DX003 (ip), vehicle: water
  survivor count: 3 of 10
dose: 64.0 mg/kg/injection, schedule: Q08DX002 (ip), vehicle: water
  survivor count: 0 of 10
dose: 100.0 mg/kg/injection, schedule: Q01DX001 (ip), vehicle: saline
  T/C: 146 % of control
dose: 100.0 mg/kg/injection, schedule: Q01DX009 (ip), vehicle: Klucel (hydroxypropylcellulose) (HPC)
  survivor count: 0 of 6
dose: 100.0 mg/kg/injection, schedule: Q04DX002 (ip), vehicle: saline with Tween-80
  survivor count: 1 of 3 and 2 of 6
dose: 100.0 mg/kg/injection, schedule: Q04DX003 (ip), vehicle: saline
  survivor count: 2 of 6 and 4 of 6
dose: 128.0 mg/kg/injection, schedule: Q01DX001 (ip), vehicle: water
  survivor count: 0 of 10
dose: 128.0 mg/kg/injection, schedule: Q04DX003 (ip), vehicle: water
  survivor count: 0 of 10
dose: 128.0 mg/kg/injection, schedule: Q08DX002 (ip), vehicle: water
  survivor count: 0 of 10
dose: 200.0 mg/kg/injection, schedule: Q04DX002 (ip), vehicle: saline with Tween-80
  survivor count: 0 of 6 and 1 of 3
dose: 200.0 mg/kg/injection, schedule: Q04DX003 (ip), vehicle: saline
  survivor count: 1 of 6
dose: 400.0 mg/kg/injection, schedule: Q04DX002 (ip), vehicle: saline with Tween-80
  survivor count: 0 of 3 and 0 of 6
dose: 400.0 mg/kg/injection, schedule: Q04DX003 (ip), vehicle: saline
  survivor count: 1 of 6

## CC(=O)SCC(CSC(C)=O)c1nncc2ccccc12
dose: 200.0 mg/kg/injection, schedule: Q01DX001 (ip), vehicle: saline
  survivor count: 0 of 6
dose: 400.0 mg/kg/injection, schedule: Q01DX001 (ip), vehicle: saline
  survivor count: 0 of 6

## CCOC(=O)c1cc(OCC)nc(SC)n1
dose: 100.0 mg/kg/injection, schedule: Q01DX Z (ip), vehicle: methylcellulose (MC)
  survivor count: 5 of 6
dose: 200.0 mg/kg/injection, schedule: Q01DX Z (ip), vehicle: methylcellulose (MC)
  survivor count: 5 of 6

## Cc1nc(-c2ccc(N=Cc3ccc(N(CCOS(C)(=O)=O)CCOS(C)(=O)=O)cc3C)cc2)cs1
dose: 100.0 mg/kg/injection, schedule: Q01DX001 (ip), vehicle: Klucel (hydroxypropylcellulose) (HPC)
  T/C: 132 % of control
dose: 200.0 mg/kg/injection, schedule: Q01DX001 (ip), vehicle: Klucel (hydroxypropylcellulose) (HPC)
  survivor count: 3 of 6
dose: 400.0 mg/kg/injection, schedule: Q01DX001 (ip), vehicle: Klucel (hydroxypropylcellulose) (HPC)
  survivor count: 0 of 6

## C=C1C(=O)OC2C(=O)OC(CCCCCCCC)C12 (stereo not drawn)
dose: 50.0 mg/kg/injection, schedule: Q04DX002 (ip), vehicle: Klucel (hydroxypropylcellulose) (HPC)
  survivor count: 1 of 3
dose: 100.0 mg/kg/injection, schedule: Q04DX002 (ip), vehicle: Klucel (hydroxypropylcellulose) (HPC)
  survivor count: 1 of 3

## CC[N+](=Cc1ccccc1)C1CCCCC1
dose: 400.0 mg/kg/injection, schedule: Q01DX009 (ip), vehicle: saline
  survivor count: 2 of 6

## O=C1C2CCN(CC2)C1CN1CCC(O)(c2ccc(Cl)cc2)CC1 (stereo not drawn)
dose: 400.0 mg/kg/injection, schedule: Q04DX003 (ip), vehicle: Klucel (hydroxypropylcellulose) (HPC)
  survivor count: 0 of 6
